# Results: patent publication US11738092B2, “Methods and compositions for synthesis of therapeutic nanoparticles” (priority 2019, dated 2023)
# Assay: Alizarin Red S (ARS) detection assay: number of NPBA per Tf
# Conditions: CN divided by the known concentration of Tf
substance,measurement,setting,value
mono-NPBA-PEG5k-Tf,NTf = (NPBA per Tf),,1 NPBA per Tf
same,NTf = (NPBA per Tf),listed as Mono-NPBA-PEG5k-Tf (+ citrate),0.91 NPBA per Tf
same,NTf = (NPBA per Tf),listed as Mono-NPBA-PEG5k-Tf (- citrate),1.05 NPBA per Tf
